Reference: PubChem BioAssay AID540276 (National Center for Advancing Translational Sciences (NCATS), 2011)
“And” between values parts separate entries of the source, which are not always exact repeats. Identical values can stand only once. In all, about 300,000 compounds went through this assay and about 5,400 (1.8%) were called active. Inconclusive results, whose numbers are uncertain, are shown with a selection of clear calls. The call rests on the fitted dose curve; tested in HEK293 cells. Potencies beside an inconclusive call are fits to weak or partial responses and may not hold up.

Test: qHTS for inhibitors of binding or entry into cells for Marburg Virus
Details: Marburg virus pseudotyped entry inhibition, cell reporter; activity change, negative = inhibition: at 37.8 µM (top of the series) unless noted
On the % scale 0 is the no-effect control and ±100 the full control effect; potency means the concentration at half of the fitted maximal effect.

SMILES	activity change, negative = inhibition	Potency
CCCCNC(=O)N1CCN(c2ncccn2)CC1	inactive: -4.4%	
Cc1ccc(Cn2c(C)c(CNCc3ccc(OC(C)C)cc3)c(C(=O)O)c2C)cc1		inconclusive: 35.5 µM [inhibitor, single point]
COc1ccc(NC(=O)C(c2ccccc2)N(C)C(=O)c2ccc(=O)[nH]c2)cc1 (configuration not stated)		inconclusive: 0.562 µM [inhibitor, full curve, poor fit]
Cc1cccc(NC(=O)c2sc(Cl)nc2C)c1C	inactive: -3.28%	
C=CCn1c(SCC(=O)NCc2ccc3c(c2)OCO3)nnc1C1CCCCC1		inconclusive: 35.5 µM [inhibitor, single point]
Cc1ccc(-c2noc(CCC(=O)Nc3ccc(C)cn3)n2)cc1	inactive: 0%	
COc1ccc(NS(=O)(=O)c2ccc(C)c(C(=O)N3CCN(Cc4cc(OC)ccc4OC)CC3)c2)cc1		inconclusive: 14.1 µM [inhibitor, partial curve, poor fit]
COc1ccc(CCC(C)NC(=O)CCc2ccccc2)c(OC)c1 (configuration not stated)		inconclusive: 7.08 µM [inhibitor, partial curve]
Cc1ccc(NC(=O)NC2CC(=O)N(c3ccc4c(c3)OCCO4)C2)c(C)c1 (configuration not stated)	inactive: -4.92% [at 46.1 µM]	
Nc1ccc(C(=O)Nc2ccc3cc(S(=O)(=O)O)ccc3c2)cc1		inconclusive: 11.2 µM [activator, partial curve, poor fit]
N#C/C(=C\c1ccc(-c2ccc(C(=O)O)cc2)o1)c1nc2ccccc2[nH]1		active: 10 µM
COC(=O)c1ccc(Oc2ccc(S(=O)(=O)N3CCCCC3)cc2N)cc1		inconclusive: 17.8 µM [inhibitor, single point]
O=C(COc1ccc(C(=O)c2ccccc2)cc1)Nc1cccnc1		inconclusive: 25.1 µM [inhibitor, single point]
CC(=O)C1CCCN(C(=O)c2ccc3nc(Cc4cccc(Cl)c4)oc3c2)C1 (configuration not stated)	inactive: -14.6%	
COc1ccc(CNC(c2ccccc2)c2ccc(Cl)cc2)cc1 (configuration not stated)		inconclusive: 31.6 µM [inhibitor, single point]
Cc1ccc(OCC(=O)Nc2ccc3nc(SCC(=O)N(C)c4ccccc4)sc3c2)cc1		inconclusive: 25.1 µM [inhibitor, single point]
Cc1ccccc1N=CC=C1OC(C)(C)C(C)(C)O1	inactive: 0.306%	
Cc1cccc(C)c1NC(=O)CCn1cnc2ccccc2c1=O	inactive: -4.41%	
Clc1ccc(OCCCNCc2ccccc2)c(Br)c1		inconclusive: 29.1 µM [inhibitor, single point]
CCCc1nnc(NC(=O)C(=O)NCCN(C)C)s1	inactive: 4.13% [at 46.1 µM]	
CCCC(=O)C1=C(O)C(C(=O)OC)C(C)(C)CC1=NC(C)(C)C (configuration not stated)	inactive: -7.87%	
COc1cc(/C=C/C(=O)OCC(=O)NC(=O)NC(C)C)cc(OC)c1OC		inconclusive: 2.82 µM [activator, single point]
COc1cc(C(=O)NCCC(C)C)ccc1OCc1ccc(Cl)cc1Cl		inconclusive: 35.5 µM [inhibitor, single point]
Cc1cc(O)ccc1C1(c2ccc(O)cc2C)OC(=O)c2ccccc21		inconclusive: 35.5 µM [inhibitor, single point]

SMILES	activity change, negative = inhibition	Potency
COC(=O)C1(C)C=C(Nc2ccc(OC)cc2)C(=O)N1c1ccc(OC)cc1 (configuration not stated)		inconclusive: 0.188 µM [inhibitor, full curve, poor fit]
O=C(NC1CCCC1)C(c1ccncc1)N(C(=O)c1ccco1)c1ccc(F)c(Cl)c1 (configuration not stated)	inactive: -7.87% [at 46.1 µM]	
CSc1nc2ccc(NC(=O)c3c(F)cccc3F)cc2s1		inconclusive: 0.562 µM [activator, full curve, poor fit]
COc1ccc(NCc2nnc(SCC(=O)NNC(=O)c3ccc(C)cc3)n2C)cc1	inactive: 14.4% [at 46.1 µM]	
CSc1ccc(/C=N/N2CCN(Cc3ccccc3)CC2)cc1	inactive: -12.5%	
COc1ccccc1/C=C1\SC(=S)N(CCC(=O)NC2=NCCS2)C1=O		inconclusive: 6.31 µM [activator, single point]
CCN(CC)c1ccc(NC(=O)Cn2c(C(C)NC(=O)c3ccccc3)nc3ccccc32)cc1 (configuration not stated)	inactive: -20.1%	
FC(F)(F)c1nc2ccccc2nc1N/N=C/c1c(Cl)cccc1Cl	inactive: 12.6%	
NC(=O)C1(N2CCCCC2)CCN(S(=O)(=O)c2cc(Cl)sc2Cl)CC1	inactive: 11.9% [at 46.1 µM]	
NC(=O)CSCc1cccc(Br)c1	inactive: 1.39%	
CN(c1cccc(NC(=O)c2ccc(Cl)c(S(=O)(=O)Nc3ccccc3)c2)c1)S(C)(=O)=O		active: 3.66 µM
O=C(NC1CCCCC1)C12CC3CC(C1)CC(n1cncn1)(C3)C2		inconclusive: 20 µM [inhibitor, single point]
Cc1cc(C)c2[nH]c(O)c(N=Nc3ccc(C(=O)O)cc3)c2c1		inconclusive: 12.6 µM [activator, partial curve, poor fit]
CC(Sc1ncnc2ccccc12)C(=O)Nc1ccc2c(c1)OCO2 (configuration not stated)		inconclusive: 6.31 µM [inhibitor, partial curve, poor fit]
COc1ccccc1/C=N/NC(=O)c1ccc2c(c1)OCO2	inactive: 3.64%	
O=Cc1ccccc1Oc1nc(N2CCOCC2)nc(N2CCOCC2)n1		inconclusive: 22.4 µM [activator, single point]
Cc1ccc(CSc2nc3c(c(=O)[nH]2)C(c2cccc(F)c2F)CC(=O)N3)cc1 (configuration not stated)	inactive: -7.43% [at 46.1 µM]	
COc1ccc(-c2nc(NC3=NCCCCC3)sc2C)cc1		inconclusive: 17.8 µM [inhibitor, single point]
CCOC(=O)c1cc(-c2ccc(OC)cc2)nn1Cc1ccccc1	inconclusive: 50.6% [activator] [at 46.1 µM]	
O=C1C(Cl)=C(N2CCCCCC2)C(=O)N1c1ccccc1	inactive: -3.98%	
CCN(CC)c1ccc2c(c1)C(=O)N(C)C2=O	inactive: 12%	
COc1ccc(C2N3CC4(C)CN2CC(c2ccccc2)(C3)C4=O)cc1 (configuration not stated)	inactive: 1.34% [at 46.1 µM]	
CCOc1ccccc1-n1nnc(S(=O)(=O)c2ccc(C)cc2)c1N	inactive: 3.71% [at 46.1 µM]	
Cc1nn(C)cc1/C=C/C(=O)c1ccc(O)cc1		inconclusive: 6.31 µM [activator, single point]

SMILES	activity change, negative = inhibition	Potency
Cc1ccc(NC(=O)CSc2nc(-c3ccco3)cc(C(F)(F)F)n2)cc1C		inconclusive: 517 nM [inhibitor, full curve, poor fit] and inconclusive: 2 µM [inhibitor, full curve, poor fit]
O=C(c1ccc(CS(=O)(=O)c2ccc(Br)cc2)o1)N1CCCCCC1	inactive: 0.0354%	
O=C(Nc1ccc(Cl)cc1)Nc1nccs1	inactive: -17.3%	
COc1ccc(-c2nn(-c3ccccc3)cc2/C=C/C(=O)OCC(=O)Nc2cccc(C#N)c2)cc1		inconclusive: 4.47 µM [inhibitor, partial curve, poor fit]
Cc1ccc(CNCc2cc3c(C(C)(C)C)nn(-c4ccccc4)c3[nH]c2=O)cc1		inconclusive: 16.4 µM [inhibitor, single point]
CCOC(=O)c1nn(-c2ccccc2F)c(-c2ccccc2)c1C(=O)c1ccccc1		inconclusive: 35.5 µM [inhibitor, single point]
C/C(CCc1oc2ccccc2c1-c1ccc(C)o1)=N/O		inconclusive: 11.2 µM [inhibitor, partial curve, poor fit]
CC(C)(C)C(=O)NC1(C(F)(F)F)NC(=O)N(Cc2ccccc2)C1=O (configuration not stated)		inconclusive: 0.355 µM [inhibitor, full curve, poor fit]
O=C(NC1CCCCC1)C(c1ccccn1)N(C(=O)c1csnn1)C1CCCCC1 (configuration not stated)		inconclusive: 0.562 µM [inhibitor, full curve, poor fit]
CCCCN(CC)CCCNC(=O)c1cn(CC)c2ccc(S(=O)(=O)N3CCOCC3)cc2c1=O	inactive: -7.73% [at 46.1 µM]	
O=c1c2cnn(-c3ccccc3)c2nc(-c2cccs2)n1-c1cccc(Cl)c1		inconclusive: 35.5 µM [inhibitor, single point]
CCc1sc(C(=O)Nc2ccc(N3CCOCC3)cc2)cc1C		inconclusive: 8.91 µM [activator, single point]
COCc1cc(CN2CCCC(CNC(=O)c3ccc(F)cc3)C2)ccc1OC (configuration not stated)		inconclusive: 29.1 µM [inhibitor, single point]
CN(CC(=O)Nc1cccc(F)c1)CC(=O)Nc1cccc(S(=O)(=O)N2CCCCC2)c1		inconclusive: 10 µM [inhibitor, partial curve, poor fit]
COc1ccc(NC(=O)c2ccco2)cc1NC(=O)c1ccco1		inconclusive: 0.82 µM [activator, full curve, poor fit]
O=C1c2ccccc2C(=O)N1CCCCN(C(=O)c1cc([N+](=O)[O-])ccc1Cl)c1ccc(Cl)cc1		inconclusive: 8.2 µM [inhibitor, partial curve, poor fit]
COc1ccc(C2=Nn3c(nnc3-c3ccc(OC)cc3)SC2)cc1		inconclusive: 7.3 µM [inhibitor, single point]
COc1ccccc1C(=O)NC(=O)COC(=O)c1ccc([N+](=O)[O-])cc1	inactive: 3.81%	
CC(C)N=C1NN=C(c2cccs2)C(CC(=O)O)S1 (configuration not stated)	inactive: 25.9%	
Cc1c(Cl)cccc1NS(=O)(=O)c1ccccc1	inactive: 3.27%	
COc1cc(NC(=O)c2ncn(-c3ccccc3)n2)cc(OC)c1		inconclusive: 12.6 µM [activator, single point]
O=S(=O)(/N=C(/Nc1ccc(Cl)c(S(=O)(=O)N2CCOCC2)c1)c1ccc(F)cc1)c1ccccc1		inconclusive: 22.4 µM [inhibitor, single point]
COc1ccc(-c2nnc(SCC(=O)Nc3ncc(C(F)(F)F)cc3Cl)n2CC(C)C)cc1	inactive: 17.2%	
CCn1c(C)nnc1SCC(=O)Nc1ccc2c(c1)OCCO2		inconclusive: 22.4 µM [inhibitor, single point]
